The source of these data is patent US20220142990A1, “EXTERNAL PREPARATION FOR TREATING A VASCULAR ANOMALY” (OSAKA UNIVERSITY, priority 2019, published 2022).

The nature of this data set: Solubility of sirolimus in diethylene glycol monoethyl ether. It counts as physicochemical. As to conditions: solvent diethylene glycol monoethyl ether. The source says:
Sirolimus or the sirolimus derivative is soluble in the diethylene glycol ether. Sirolimus dissolves well in the diethylene glycol monoethyl ether, and can be dissolved therein at up to 2.02 W/V %.

Regarding `CO[C@H]1C[C@@H]2CC[C@@H](C)[C@@](O)(O2)C(=O)C(=O)N2CCCC[C@H]2C(=O)O[C@H]([C@H](C)C[C@@H]2CC[C@@H](O)[C@H](OC)C2)CC(=O)[C@H](C)/C=C(\C)[C@@H](O)[C@@H](OC)C(=O)[C@H](C)C[C@H](C)/C=C/C=C/C=C/1C` [Sirolimus, sirolimus], the “solubility in diethylene glycol monoethyl ether” value was “up to 2.02 W/V %”.
